Measured values published in paper PMC5679654.
No constants are given. Whether binding was seen depends on the method and setting. Binding seen in cells or lysates may run through a third protein. Some entries that bind do so weakly or less than the wild type. Tags and fused reporters may be left off the sequences shown.

Target: T1, IRF3 (endogenous, HEK293FT nuclear extract) (human (endogenous in HEK293FT)) (UniProt Q14653)
T1 sequence: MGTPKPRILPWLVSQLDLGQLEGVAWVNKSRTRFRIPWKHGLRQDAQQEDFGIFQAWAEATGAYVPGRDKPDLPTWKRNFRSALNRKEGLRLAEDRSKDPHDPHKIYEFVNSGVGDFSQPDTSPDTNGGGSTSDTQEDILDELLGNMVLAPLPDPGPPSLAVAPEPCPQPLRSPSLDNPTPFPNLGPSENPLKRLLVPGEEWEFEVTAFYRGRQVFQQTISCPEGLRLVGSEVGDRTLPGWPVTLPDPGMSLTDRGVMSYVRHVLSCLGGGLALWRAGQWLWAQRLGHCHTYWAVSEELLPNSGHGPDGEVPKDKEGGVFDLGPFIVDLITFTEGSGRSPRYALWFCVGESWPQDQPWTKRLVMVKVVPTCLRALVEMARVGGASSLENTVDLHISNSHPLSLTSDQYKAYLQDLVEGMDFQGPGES
Assay: co-IP; nuclear extracts of HEK293FT cells cotransfected with HA-EAP30 or HA-EAP20 and FLAG-CBP-HA for 48 h, mock-infected or infected with SeV for 8 h; IP with anti-CBP pAb or anti-IRF3 pAb, blot with anti-CBP, anti-IRF3 and anti-HA

B1: HA-EAP30 (protein, UniProt Q96H20 1-258)
chain: MHRRGVGAGAIAKKKLAEAKYKERGTVLAEDQLAQMSKQLDMFKTNLEEFASKHKQEIRKNPEFRVQFQDMCATIGVDPLASGKGFWSEMLGVGDFYYELGVQIIEVCLALKHRNGGLITLEELHQQVLKGRGKFAQDVSQDDLIRAIKKLKALGTGFGIIPVGGTYLIQSVPAELNMDHTVVLQLAEKNGYVTVSEIKASLKWETERARQVLEHLLKEGLAWLDLQAPGEAHYWLPALFTDLYSQEITAEEAREALP
  binding: binds
